{"source": "the supplement of paper PMC10727501", "note": "The other results are listed elsewhere or left out. This data set is noisy: repeats of one test often differ as much as different tests do.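 Free-swimming zebrafish larvae were scored for O-bend response probability to dark flashes (naive: first five; training: remaining flashes of four 60-flash blocks; test: later 60-flash block) and for turning toward alternating leftward/rightward LED motion (OMR). Six treated larvae were compared with sixty 0.1% DMSO controls; |SSMD|≥2 defined a hit.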", "data": [{"system": "Danio rerio larvae (5 dpf, TLF)", "experiment": "Prob-Test (SSMD vs DMSO vehicle); higher = higher than vehicle (e.g. higher dark-flash O-bend response probability, or better optomotor performance)", "settings": "10 µM; pre-incubation: 30-90 min", "values": [{"molecule": "CN(C)Cc1c(C(=O)NCCOc2ccc(C(=O)NO)cc2)oc2ccccc12", "Prob-Test": 0.05}, {"molecule": "O=C([O-])CC(O)(CC(=O)[O-])C(=O)[O-].O=C([O-])CC(O)(CC(=O)[O-])C(=O)[O-].[Bi+3].[K+].[K+].[K+].[K+].[K+]", "note": "[Bismuth Subcitrate Potassium]", "Prob-Test": -0.218}, {"molecule": "CCn1c(N)c(C(=O)NC)c(=O)c2ccc(C#C[C@@](C)(O)COC)nc21", "Prob-Test": -0.169}, {"molecule": "CC1(C)CNc2cc(NC(=O)c3cccnc3NCc3ccncc3)ccc21.O=P(O)(O)O.O=P(O)(O)O", "note": "[Motesanib Diphosphate (AMG-706)]", "Prob-Test": -0.293}, {"molecule": "COC(=O)Nc1ccc(-c2nc(N3CCOCC3)c3cnn(C4CCN(C(=O)OC)CC4)c3n2)cc1", "Prob-Test": -0.956}, {"molecule": "Cl.O=C(O)/C=C/c1ccc(Cn2ccnc2)cc1", "note": "[Ozagrel HCl]", "Prob-Test": 0.403}, {"molecule": "Cc1ccc(NC(=O)c2ccc(CN3CC[C@H](N(C)C)C3)c(C(F)(F)F)c2)cc1Nc1ncc(-c2cncnc2)cn1", "note": "[Bafetinib (INNO-406)]", "Prob-Test": 0.161}, {"molecule": "Cc1cc(O)c2c(c1)C(=O)c1cccc(O)c1C2=O", "note": "[Chrysophanic Acid]", "Prob-Test": -0.808}, {"molecule": "NNC(=O)c1ccncc1.Nc1ccc(C(=O)O)c(O)c1", "note": "[Pasiniazid]", "Prob-Test": -0.0373}, {"molecule": "Cc1cc(C)cc(NC(=O)Cc2ccc(OC(C)(C)C(=O)[O-])cc2)c1.[Na+]", "note": "[Efaproxiral Sodium]", "Prob-Test": -0.0331}, {"molecule": "CCCC(C(=O)OCCN(CC)CC)(c1ccccc1)c1ccccc1.Cl", "note": "[Proadifen HCl]", "Prob-Test": -1.41}]}]}
